From publication PMC11257983 (2024)
Where a chain is given by its changes, count along the chain named. Results are given in words; binding and its absence hold for the method and conditions named. For some of these results: Binding seen in cells or lysates may run through a third protein. Some binding calls cover weakened binding; strength is not graded here. For some of these results: Where a sequence is shown, tags or fusion partners need not be part of it. Each block holds one binder with its values, some of them ahead of it.

Experiments:
CNK^2–330 (Drosophila) [1] = target: T1, CNK^2–330 (Drosophila) (UniProt Q7KNQ9); test: crystal structure; CNK^2–330–HYP^2–106 complex, 20 mg/ml, 0.1 M Bis-Tris propane pH 7.0, 1.0 M ammonium tartrate, 20 °C; co-expressed and co-purified; both purified
T1 sequence: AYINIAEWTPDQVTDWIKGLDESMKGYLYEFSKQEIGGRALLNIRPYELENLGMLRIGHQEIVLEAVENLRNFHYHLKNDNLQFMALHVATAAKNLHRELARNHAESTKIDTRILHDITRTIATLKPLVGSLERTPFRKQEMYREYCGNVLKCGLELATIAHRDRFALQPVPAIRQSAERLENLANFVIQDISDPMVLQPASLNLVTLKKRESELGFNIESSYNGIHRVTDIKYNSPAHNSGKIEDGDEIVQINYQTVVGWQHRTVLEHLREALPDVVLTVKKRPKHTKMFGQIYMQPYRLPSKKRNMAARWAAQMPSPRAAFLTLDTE

[2] = target: T2, CNK^2–330 D195K (Drosophila) (UniProt Q7KNQ9); test: SEC; co-expressed and co-purified binary complexes (CNK–HYP or KSR–MEK) run alone; 20 mM HEPES pH 7.0, 500 mM NaCl, 1 mM TCEP; S200 10/300 column; both purified
T2 sequence: T1 sequence with D194K

[3] = target: T3, CNK^2–330 M197E (Drosophila) (UniProt Q7KNQ9); test: as above
T3 sequence: T1 sequence with M196E

CNK^2–330 (Drosophila) [4] = target: T1, CNK^2–330 (Drosophila); test: as above
[5] = target: T4, CNK^2–330 V198E (Drosophila) (UniProt Q7KNQ9); test: as above
T4 sequence: T1 sequence with V197E

CNK^2–330 (Drosophila) [6] = target: T1, CNK^2–330 (Drosophila); test: cryo-EM structure; 6 µM KSR–MEK complex mixed with 6.7 µM CNK–HYP complex, 1 mM MgCl2, 1 mM AMP–PNP, 50 µM trametinib, 4 °C; both purified
GST-HYP (Drosophila) [7] = target: T5, GST-HYP (Drosophila) (UniProt Q8ML92); test: pull-down; GST-HYP as bait, CNK, KSR and MEK variants co-expressed in S2 cells (Fig. 2c,d; Extended Data Fig. 7e); total lysates, overnight at 4 °C; immunoblot
T5 sequence: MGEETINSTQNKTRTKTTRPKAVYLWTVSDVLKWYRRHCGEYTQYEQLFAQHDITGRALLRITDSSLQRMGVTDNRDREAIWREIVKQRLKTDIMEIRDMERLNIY

[8] = target: T6, GST-HYP L90D (Drosophila) (UniProt Q8ML92); test: pull-down; GST-HYP as bait, Flag-CNK^2–549 variants co-expressed in S2 cells without other pathway components (binary CNK–HYP interaction); total lysates, overnight at 4 °C; immunoblot
T6 sequence: T5 sequence with L90D

GST-HYP (Drosophila) [9] = target: T5, GST-HYP (Drosophila); test: as above
[10] = target: T7, GST-HYP I97D (Drosophila) (UniProt Q8ML92); test: as above
T7 sequence: T5 sequence with I97D

[11] = target: T6, GST-HYP L90D (Drosophila); test: pull-down; GST-HYP as bait, CNK^2–549 co-expressed in S2 cells with Ha-RAS^V12, Pyo-RAF, V5-KSR and Myc-MEK (RRKM); total lysates, overnight at 4 °C; immunoblot
GST-HYP (Drosophila) [12] = target: T5, GST-HYP (Drosophila); test: as above
[13] = target: T7, GST-HYP I97D (Drosophila); test: as above

- binding (CNK^2–330 (Drosophila) [1]): binds
- binding [2]: binds
- binding [3]: binds
- binding (CNK^2–330 (Drosophila) [4]): binds
- binding [5]: binds
- binding (CNK^2–330 (Drosophila) [6]): binds
B1: HYP^2–106 (protein, UniProt Q8ML92 2-106)
chain: GEETINSTQNKTRTKTTRPKAVYLWTVSDVLKWYRRHCGEYTQYEQLFAQHDITGRALLRITDSSLQRMGVTDNRDREAIWREIVKQRLKTDIMEIRDMERLNIY

- binding (GST-HYP (Drosophila) [7]): binds
- binding [8]: binds
- binding (GST-HYP (Drosophila) [9]): binds
- binding [10]: binds
- binding [11]: binds
- binding (GST-HYP (Drosophila) [12]): binds
- binding [13]: binds
B2: Flag-CNK^2–549 (domain or fragment, UniProt Q7KNQ9 2-549)
chain: AYINIAEWTPDQVTDWIKGLDESMKGYLYEFSKQEIGGRALLNIRPYELENLGMLRIGHQEIVLEAVENLRNFHYHLKNDNLQFMALHVATAAKNLHRELARNHAESTKIDTRILHDITRTIATLKPLVGSLERTPFRKQEMYREYCGNVLKCGLELATIAHRDRFALQPVPAIRQSAERLENLANFVIQDISDPMVLQPASLNLVTLKKRESELGFNIESSYNGIHRVTDIKYNSPAHNSGKIEDGDEIVQINYQTVVGWQHRTVLEHLREALPDVVLTVKKRPKHTKMFGQIYMQPYRLPSKKRNMAARWAAQMPSPRAAFLTLDTEQLATGGTGSAVPDPSKSLSSEKREVLTKANPVSSASDSDSSCSDIPTPTDPKLAAREIRLYYPKPRALLQRRNTICGCEYLSLKNSDLVVPSWHERKPGIGSPTNCDPGSPSIRDKSISFGYGLEMAARPTTCIGIAGDTSTDKARRMFHEARKLKQLTEDSQREFLVDRYKPGVSKVVRFDAKEDYVMKNEKFICNVENTILETFEPIPFADEGDEDA
